# Results deposited as PubChem BioAssay AID1259254 (NCATS, 2017)
# Aim: 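Gene knock-downs that lead to re-replication, shown by excess G2 DNA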 (primary screen)
# Cell system: human HCT116 colorectal cancer cells
# Knock-down reagent: single siRNA against human genes
# Time to read-out: 3 days
# Read-out: 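Nuclei stained with Hoechst and imaged; cell-cycle phase assigned by DNA content; G2 share scaled per plate, non-targeting siRNA 0%, GMNN siRNA 100%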
# Direction: G2 robust z-score and G2 cells, % of GMNN control: higher = more G2 cells, more excess DNA replication; raw share of cells in G2: higher = larger share of cells with G2 DNA content
# Active means: 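An siRNA counts as active if its G2 robust z-score lies at least 5 MADs above the screen median; here such calls match roughly 38% of GMNN control or more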
# Shown is a random part of about 59,000 reagents tested. About 1,550 of all reagents (2.6%) were called active. 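G2 share is only a proxy for re-replication; each gene was hit by three separate siRNAs, and active genes were retested.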 Raw values are not corrected between plates. Not given: the amount of reagent.
gene symbol,PubChem SID,G2 robust z-score,"G2 cells, % of GMNN control",raw share of cells in G2 (%),call
GPR25,SID160723803,-0.0579,2.56,4.05,inactive
GPR25,SID160731005,-0.634,-1.49,4,inactive
GPR25,SID160773461,-0.364,0.405,5.99,inactive
MRNIP,SID160740186,-0.161,1.84,4.56,inactive
MRNIP,SID160740187,-0.0401,2.69,5.56,inactive
MRNIP,SID160740188,0.195,4.34,4.62,inactive
BMP10,SID160738690,-0.646,-1.58,3.25,inactive
BMP10,SID160738691,0.229,4.58,6.28,inactive
BMP10,SID160738692,-0.662,-1.69,2.72,inactive
AMDHD2,SID160731342,-0.758,-2.37,2.89,inactive
AMDHD2,SID160739831,-0.0426,2.67,5.23,inactive
AMDHD2,SID160739832,-0.701,-1.96,5.06,inactive
MUCL1,SID160755625,-0.775,-2.48,3.1,inactive
MUCL1,SID160755626,-0.151,1.91,3.9,inactive
MUCL1,SID160755627,-0.32,0.716,2.03,inactive
PIN4P1,SID160772106,1.79,15.6,9.9,inactive
PIN4P1,SID160772107,0.269,4.86,4.88,inactive
PIN4P1,SID160772108,2.11,17.8,10,inactive
SCN1B,SID160731690,-0.437,-0.111,4.33,inactive
SCN1B,SID160775780,0.00647,3.01,6.39,inactive
SCN1B,SID160775791,1.1,10.7,8.41,inactive
AHCYL1,SID160774900,-1.19,-5.39,2.1,inactive
AHCYL1,SID160774911,-1.39,-6.79,3.8,inactive
AHCYL1,SID160774921,-0.734,-2.2,4.74,inactive
TMEM154,SID160761027,0.763,8.34,6.59,inactive
TMEM154,SID160761028,-0.472,-0.351,2.84,inactive
TMEM154,SID160761029,-0.158,1.86,3.35,inactive
LINC00330,SID160758195,-0.746,-2.28,3.06,inactive
LINC00330,SID160758198,-0.987,-3.97,1.69,inactive
LINC00330,SID160758199,0.104,3.7,4.36,inactive
ELP3,SID160743038,-0.651,-1.61,3.66,inactive
ELP3,SID160743039,-1.25,-5.84,3.87,inactive
ELP3,SID160743040,-0.608,-1.31,3.97,inactive
OR2L8,SID160766655,1.28,12,8.18,inactive
OR2L8,SID160766656,-0.89,-3.3,2.21,inactive
OR2L8,SID160766657,1.49,13.4,10.4,inactive
APMAP,SID160733658,0.204,4.4,4.42,inactive
APMAP,SID160745681,-0.436,-0.1,4.31,inactive
APMAP,SID160745682,0.794,8.56,8.55,inactive

Continued (4 carried over from the part before).
gene symbol,PubChem SID,G2 robust z-score,"G2 cells, % of GMNN control",raw share of cells in G2 (%),call
OR2L8,SID160766657,1.49,13.4,10.4,inactive
APMAP,SID160733658,0.204,4.4,4.42,inactive
APMAP,SID160745681,-0.436,-0.1,4.31,inactive
APMAP,SID160745682,0.794,8.56,8.55,inactive
SEPTIN14,SID160764894,-0.548,-0.885,3.96,inactive
SEPTIN14,SID160764895,-1.23,-5.7,2.73,inactive
SEPTIN14,SID160764897,0.821,8.74,9.68,inactive
FARSB,SID160774866,-0.176,1.73,5.45,inactive
FARSB,SID160774877,0.0569,3.37,6.48,inactive
FARSB,SID160774888,0.188,4.29,4.66,inactive
PER2,SID160721004,-0.577,-1.09,3.16,inactive
PER2,SID160721005,-0.259,1.14,6.5,inactive
PER2,SID160721006,-0.585,-1.15,2.86,inactive
PIERCE1,SID160732495,-0.605,-1.29,2.11,inactive
PIERCE1,SID160757575,-1.16,-5.19,2.22,inactive
PIERCE1,SID160757576,0.481,6.35,5.12,inactive
MLST8,SID160733765,-0.838,-2.93,1.92,inactive
MLST8,SID160747601,3.09,24.7,15.4,inactive
MLST8,SID160747602,3.16,25.2,15.9,inactive
ACAD9,SID160738909,-0.0343,2.73,5.09,inactive
ACAD9,SID160738910,-0.794,-2.62,3.13,inactive
ACAD9,SID160738911,-0.715,-2.06,5.23,inactive
MAP3K21,SID160752281,-0.74,-2.24,4.89,inactive
MAP3K21,SID160752282,-0.106,2.22,6,inactive
MAP3K21,SID160752283,-0.531,-0.765,3.44,inactive
WAPL,SID160735358,-1.16,-5.2,2.95,inactive
WAPL,SID160735359,0.635,7.43,7.2,inactive
WAPL,SID160735360,1.87,16.1,9.21,inactive
CDK13,SID160720440,4.95,37.8,17.4,inactive
CDK13,SID160720441,-0.55,-0.901,4.86,inactive
CDK13,SID160720442,3.15,25.1,11.7,inactive
RPL10P9,SID160725226,-0.99,-3.99,1.67,inactive
RPL10P9,SID160725227,1.34,12.4,9.94,inactive
RPL10P9,SID160766175,5.4,41,17.8,active
